In the test the target is T1, Proteasome Macropain subunit MB1 (Homo sapiens, UniProt P28074).
T1 sequence (P28074 whole entry): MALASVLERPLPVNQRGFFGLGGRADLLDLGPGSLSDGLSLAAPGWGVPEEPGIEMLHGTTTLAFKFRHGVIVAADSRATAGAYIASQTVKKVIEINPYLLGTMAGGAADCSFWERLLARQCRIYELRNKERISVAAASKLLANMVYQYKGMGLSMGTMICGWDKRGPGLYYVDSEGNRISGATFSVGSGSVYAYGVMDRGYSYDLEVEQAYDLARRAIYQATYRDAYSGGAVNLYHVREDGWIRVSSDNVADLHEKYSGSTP
Put plainly: Inhibition of chymotrypsin-like activity of purified human erythrocyte 20S proteasome assessed as decrease in AMC hydrolysis using Suc-LLVY-AMC as substrate preincubated for 10 mins and measured by fluorescence based method.

Regarding `O=C1C[C@@H](c2ccccc2)Oc2cc(O)ccc21`, the IC50 was found to be 5.21 µM.

By IC50 is commonly meant the concentration at which inhibition is half-maximal.

Source of the values: ChEMBL document CHEMBL4433200, “Another look at phenolic compounds in cancer therapy the effect of polyphenols on ubiquitin-proteasome system” (Eur J Med Chem, 2019).
